Laboratory results as given in PMC9859039, “The conserved centrosomin motif, γTuNA, forms a dimer that directly activates microtubule nucleation by the γ-tubulin ring complex (γTuRC)” (eLife, 2022).
These are yes or no findings as the source states them, for the method shown. Where a sequence is shown, tags or fusion partners need not be part of it.

Columns and labels:
[1] = biological target: Strep-His-TEV-HaloTag-3C-human γTuNA I67D/L70D (human); test: SEC; Superdex 200 increase 10/300 GL, ~50 µM (monomer), CSFxB with 6 mM BME without sucrose, 4 °C, 0.7 mL/min; peak retention volumes compared; both purified
[2] = biological target: Strep-His-TEV-HaloTag-3C-human γTuNA I67A/L70A (human); test: as above

Binder | binding [1] | binding [2]
SPTRARNMKDFENQDTEDKKENFNLKLRIYFLEERMQQEFHGPTEH (domain or fragment) [Strep-His-TEV-HaloTag-3C-human γTuNA I67D/L70D] | no binding (tested: 50 µM (monomer)) | 
SPTRARNMKDFENQATEAKKENFNLKLRIYFLEERMQQEFHGPTEH (domain or fragment) [Strep-His-TEV-HaloTag-3C-human γTuNA I67A/L70A] |  | no binding (tested: 50 µM (monomer))
